Assay [1] has as its target human insulin receptor (IR) (human) (UniProt P06213). The assay can be described thus: Co-AP with IR aptamer-magnetic agarose beads from insulin-stimulated Rat-1/IR cell lysate, Western blot.
Assay [2] concerns the target T1, epidermal growth factor receptor (EGFR) (human, UniProt P00533 25-1210).
T1 construct: Endogenous protein in A431 cell lysate; also called EGF receptor
The assay can be described thus: Co-AP with EGFR aptamer beads from EGF-stimulated A431 cell extract (data not shown).

Protein sequences, listed by entry. Tags and fused reporters are not part of them. Lines headed by an entry give the natural chain unless they say otherwise; changes in a name come on top.
UniProt P06213: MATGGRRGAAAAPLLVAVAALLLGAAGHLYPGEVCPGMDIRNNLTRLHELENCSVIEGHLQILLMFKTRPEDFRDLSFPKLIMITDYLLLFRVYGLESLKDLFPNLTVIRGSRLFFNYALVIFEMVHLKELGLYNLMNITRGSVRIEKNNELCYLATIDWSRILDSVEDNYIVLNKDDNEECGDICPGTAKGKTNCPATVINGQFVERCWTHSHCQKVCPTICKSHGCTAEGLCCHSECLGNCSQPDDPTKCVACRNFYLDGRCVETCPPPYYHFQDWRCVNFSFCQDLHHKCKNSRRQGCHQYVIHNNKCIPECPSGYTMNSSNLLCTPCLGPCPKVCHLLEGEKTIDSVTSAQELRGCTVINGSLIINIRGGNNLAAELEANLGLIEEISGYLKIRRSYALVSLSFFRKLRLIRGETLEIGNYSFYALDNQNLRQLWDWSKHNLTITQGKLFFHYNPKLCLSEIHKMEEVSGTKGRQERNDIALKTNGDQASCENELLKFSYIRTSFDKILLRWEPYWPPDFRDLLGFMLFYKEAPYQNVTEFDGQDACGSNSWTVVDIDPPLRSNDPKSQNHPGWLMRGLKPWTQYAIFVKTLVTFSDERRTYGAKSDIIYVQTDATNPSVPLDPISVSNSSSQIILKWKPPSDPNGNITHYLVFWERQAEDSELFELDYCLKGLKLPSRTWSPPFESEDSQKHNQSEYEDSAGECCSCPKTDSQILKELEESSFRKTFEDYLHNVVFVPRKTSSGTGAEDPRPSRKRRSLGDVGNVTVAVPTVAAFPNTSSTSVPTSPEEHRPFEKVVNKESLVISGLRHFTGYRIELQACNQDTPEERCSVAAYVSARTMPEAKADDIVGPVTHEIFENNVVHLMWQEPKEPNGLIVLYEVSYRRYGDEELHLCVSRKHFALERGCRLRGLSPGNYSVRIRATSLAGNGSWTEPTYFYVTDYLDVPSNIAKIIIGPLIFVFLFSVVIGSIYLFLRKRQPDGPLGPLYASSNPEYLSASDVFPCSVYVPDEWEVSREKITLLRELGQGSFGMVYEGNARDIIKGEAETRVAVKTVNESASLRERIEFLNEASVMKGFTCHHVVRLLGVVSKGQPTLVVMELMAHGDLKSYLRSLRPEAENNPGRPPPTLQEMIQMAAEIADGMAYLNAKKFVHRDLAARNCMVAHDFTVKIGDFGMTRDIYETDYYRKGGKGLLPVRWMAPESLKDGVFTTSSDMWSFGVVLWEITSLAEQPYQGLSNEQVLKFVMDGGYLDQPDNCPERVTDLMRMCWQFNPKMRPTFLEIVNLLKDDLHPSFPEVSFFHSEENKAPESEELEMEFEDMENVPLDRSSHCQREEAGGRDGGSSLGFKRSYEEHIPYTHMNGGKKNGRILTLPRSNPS
UniProt P31751: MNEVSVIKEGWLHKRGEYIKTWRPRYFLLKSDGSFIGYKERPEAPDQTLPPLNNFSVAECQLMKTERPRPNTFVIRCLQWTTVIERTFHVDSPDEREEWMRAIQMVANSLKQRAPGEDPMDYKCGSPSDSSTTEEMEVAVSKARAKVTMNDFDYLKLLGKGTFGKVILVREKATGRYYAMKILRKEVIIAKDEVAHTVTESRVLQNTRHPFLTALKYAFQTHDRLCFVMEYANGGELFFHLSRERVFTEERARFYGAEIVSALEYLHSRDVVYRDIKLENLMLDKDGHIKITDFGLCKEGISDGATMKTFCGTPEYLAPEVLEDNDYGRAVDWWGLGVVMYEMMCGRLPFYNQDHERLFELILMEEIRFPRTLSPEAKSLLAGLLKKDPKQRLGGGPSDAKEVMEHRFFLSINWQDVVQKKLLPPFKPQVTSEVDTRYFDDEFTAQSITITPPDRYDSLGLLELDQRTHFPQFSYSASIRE
UniProt P47197: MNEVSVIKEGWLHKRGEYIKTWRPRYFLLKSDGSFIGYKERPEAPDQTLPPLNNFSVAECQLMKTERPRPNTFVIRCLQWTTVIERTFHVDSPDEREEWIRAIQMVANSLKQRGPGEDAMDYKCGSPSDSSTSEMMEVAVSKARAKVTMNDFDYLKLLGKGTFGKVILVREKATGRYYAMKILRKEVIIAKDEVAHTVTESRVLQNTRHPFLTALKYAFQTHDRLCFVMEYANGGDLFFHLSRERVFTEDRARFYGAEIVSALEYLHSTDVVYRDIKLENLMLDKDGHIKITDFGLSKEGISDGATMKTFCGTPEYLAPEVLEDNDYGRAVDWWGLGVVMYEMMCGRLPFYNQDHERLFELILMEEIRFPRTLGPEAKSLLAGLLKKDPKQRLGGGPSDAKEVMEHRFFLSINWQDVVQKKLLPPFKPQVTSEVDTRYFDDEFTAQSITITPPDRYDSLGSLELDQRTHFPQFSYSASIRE

In another assay the target is AKT2 (human) (UniProt P31751). The assay can be described thus: Co-AP with AKT2 aptamer-magnetic agarose beads from insulin-stimulated MCF7 cell lysate, Western blot.

No constants are given. Whether binding was seen depends on the method and setting. Some binding calls cover weakened binding; strength is not graded here.

On to “Akt2 (in Rat-1/IR cells) (from UniProt P47197 1-481) (enzyme)”, for which, in assay [1], the binding entry is “binds”.

For the molecule “AKT2 (from UniProt P31751 1-481) (enzyme)”, the binding result in assay [2] is on record as “binds”.

B1: PDK1 (enzyme, human, UniProt O15530 1-556, looked up)
chain: MARTTSQLYDAVPIQSSVVLCSCPSPSMVRTQTESSTPPGIPGGSRQGPAMDGTAAEPRPGAGSLQHAQPPPQPRKKRPEDFKFGKILGEGSFSTVVLARELATSREYAIKILEKRHIIKENKVPYVTRERDVMSRLDHPFFVKLYFTFQDDEKLYFGLSYAKNGELLKYIRKIGSFDETCTRFYTAEIVSALEYLHGKGIIHRDLKPENILLNEDMHIQITDFGTAKVLSPESKQARANSFVGTAQYVSPELLTEKSACKSSDLWALGCIIYQLVAGLPPFRAGNEYLIFQKIIKLEYDFPEKFFPKARDLVEKLLVLDATKRLGCEEMEGYGPLKAHPFFESVTWENLHQQTPPKLTAYLPAMSEDDEDCYGNYDNLLSQFGCMQVSSSSSSHSLSASDTGLPQRSGSNIEQYIHDLDSNSFELDLQFSEDEKRLLLEKQAGGNPWHQFVENNLILKMGPVDKRKGLFARRRQLLLTEGPHLYYVDPVNKVLKGEIPWSQELRPEAKNFKTFFVHTPNRTYYLMDPSGNAHKWCRKIQEVWRQRYQSHPDAAVQ
notes: also called phosphoinositide dependent kinase 1; PDPK1
On to B1, for which the binding result with AKT2 (human) is “binds”.
